No constants are given. Whether binding was seen depends on the method and setting. Some entries that bind do so weakly or less than the wild type. Sequences can lack the tags named with a protein.

To fix the notation:
B1: Luc69 (antibody, V domains shown)
VH: QVQLQQSGPELVKPGASVKISCKASGYAFSNSWMNWVKQRPGQGLEWIGRIYPGDGDTKSNGKFKGKATLTADKSSRAAYMQLSSLTSVDSAVYFCARSTMIMTGAMDYWGQGTSVTVSS
VL: DIVMTQSHKFMSTSVGDRVIITCKASQDVSTAVAWYQQKPGQSPKLLIYSASFRYTGVPDRFTGSGSGTDFTFTVSSVQAEDLAVYYCQQHYSTPPYTFGGGTKLEIK
B2: Luc90 (antibody, IgG2b, V domains shown)
VH: QVQLQQPGAELVRPGASVKLSCKASGYSFTTYWMNWVKQRPGQGLEWIGMIHPSDSETRLNQKFKDKATLTVDKSSSTAYMQLSSPTSEDSAVYYCARSTMIATRAMDYWGQGTSVTVSS
VL: DIVMTQSQKSMSTSVGDRVSITCKASQDVITGVAWYQQKPGQSPKLLIYSASYRYTGVPDRFTGSGSGTDFTFTISNVQAEDLAVYYCQQHYSTPLTFGAGTKLELK
B3: Luc34 (antibody, IgG1, V domains shown)
VH: QVQLQQSGAELARPGASVKLSCKASGYTFTSYWMQWVKQRPGQGLEWIGAIYPGDGDTRYTQKFKGKATLTADKSSSTAYMQLSSLASEDSAVYYCARGKVYYGSNPFAYWGQGTLVTVSA
VL: DIQMTQSSSYLSVSLGGRVTITCKASDHINNWLAWYQQKPGNAPRLLISGATSLETGVPSRFSGSGSGKDYTLSITSLQTEDVATYYCQQYWSTPWTFGGGTKLEIK

The target of the test is hu50/mu50 chimeric CS1-Fc (human/mouse chimera; human). The test is described as follows: sandwich ELISA, Fc-captured construct. (In general: ELISA stands for enzyme-linked immunosorbent assay.)
Regarding B1, the binding result was “binds”.

For the molecule B2, the binding result was “binds”.

As for B3, the binding result is listed as “binds”.
